Data as given in US20260103526A1.
Results are given in words; binding and its absence hold for the method and conditions named. Some results given as binding are weak or reduced against the parent protein; the word gives no strength.

Columns and labels:
[1] = target: Fc-CLEC-1A (recombinant human Fc-CLEC-1 protein, OSE IMMUNOTHERAPEUTICS) (human); test: ELISA on immobilized Fc-CLEC1 (2 ug/ml)
[2] = target: Fc-CLEC-1A (recombinant human Fc-CLEC-1 protein, OSE IMMUNOTHERAPEUTICS) (human); test: flow cytometry competition: antibody pre-incubated with A488-labelled Fc-CLEC1 (10 nM), then binding to permeabilised Raji cells (CLEC-1 ligand m15); % stained cells
[3] = target: Fc-CLEC-1A (recombinant human Fc-CLEC-1 protein, OSE IMMUNOTHERAPEUTICS) (human); test: flow cytometry competition: antibody pre-incubated with A488-labelled Fc-CLEC1 (100 nM), then binding to permeabilised NALM6 cells (CLEC-1 ligand m15); % stained cells
[4] = target: Fc-CLEC-1A (recombinant human Fc-CLEC-1 protein, OSE IMMUNOTHERAPEUTICS) (human); test: flow cytometry competition: antibody pre-incubated with A488-labelled Fc-CLEC1 (100 nM), then binding to non-permeabilised NALM6 cells (CLEC-1 ligand m15); % stained cells
[5] = target: Fc-CLEC-1A (recombinant human Fc-CLEC-1 protein, OSE IMMUNOTHERAPEUTICS) (human); test: flow cytometry competition: antibody pre-incubated with A488-labelled human Fc-CLEC-1 (10 µg/mL), then binding to live Hepa1.6 cells (ligand m16); % hFc-CLEC-1+ cells normalised on hIgG4
[6] = target: Fc-CLEC-1A (recombinant human Fc-CLEC-1 protein, OSE IMMUNOTHERAPEUTICS) (human); test: flow cytometry competition: antibody pre-incubated with A488-labelled human Fc-CLEC-1 (10 µg/mL), then binding to live MC38 cells (ligand m16); % hFc-CLEC-1+ cells normalised on hIgG4
[7] = target: Fc-CLEC-1A (recombinant human Fc-CLEC-1 protein, OSE IMMUNOTHERAPEUTICS) (human); test: CLEC1 binding assay (ELISA) on Fc-CLEC1; compared with parent 14H9
[8] = target: Fc-CLEC-1A (recombinant human Fc-CLEC-1 protein, OSE IMMUNOTHERAPEUTICS) (human); test: CLEC1 binding assay (ELISA) on Fc-CLEC1; compared with parent 11H11
[9] = target: Fc-CLEC-1A (recombinant human Fc-CLEC-1 protein, OSE IMMUNOTHERAPEUTICS) (human); test: CLEC1 binding assay (ELISA) on Fc-CLEC1; compared with parent 6C5

Measured: binding

B1: humanized 14H9 (antibody, V domains shown)
VH: QVQLVESGGGVVQPGRSLRLSCAISGFTLTTYGIHWVRQAPGKGLEWVAVIWSDASTIYASSLKSRFTISKDNTKNTVYLQMTSLRAEDTAVYYCARHGGYYNYFDYWGQGTLVTVSS
VL: DIQMTQSPSSLSASVGDRVTITCHASQNINVWLSWYQQKPGKAPKLLLYKASNLHTGVPSRFSGSGSGTDFTLTISSLQPEDIATYYCQQGQSYWTFGGGTKVEIK
binds: [1] | [2] | [3] | [4] | [5]

B2: humanized 11H11 (antibody, human IgG4, V domains shown)
VH: QIQLVQSGSELKKPGASVKVSCKASGYTFTNFGMNWVRQAPGQGLEWMGWINTNTGEPTYADDFKGRFVFSLDTSVSTAYLQISSLKAEDTATYFCARGAPAWFTYWGQGTTVTVSS
VL: DIQMTQSPSSLSASVGDRVTITCRASESIYSYLAWYQQKPGKAPKFLIYNAKTLASGVPSRFSGSGSGTDFTLTISSLQPEDFATYYCQHHFGTPLTFGQGTKLEIK
not listed: [7] | [8] | [9]
binds: all other assays above

B3: humanized 6C5 (antibody, V domains shown)
VH: QVQLVQSGAEVKKPGSSVKMSCKASGYTFTDYVISWVRQAPGQGLEWMGEIYPGSGNTYYNQKFQGRVTLTADKSTSTAYMELSSLRSEDTAVYYCAGGGSSHFDYWGQGTTVTVSS
VL: EIVLTQSPATLSLSPGERATLSCRASQSVDNHGFSFMNWFQQKPGQAPRLLIYAASNRGTGIPARFSGSGSGTDFTLTISSMEPEDFAVYYCQQSKEVPWTFGGGTKVEIK
not listed: [7] | [8] | [9]
binds: all other assays above

B4: 14H9m (antibody, V domains shown)
VH: QVQLVESGGGVVQPGRSLRLSCAISGFTLTTYGIHWVRQAPGKGLEWVAVIWSDASTIYASSLKSRFTISKDNSKNTVYLQMTSLRAEDTAIYYCARHGGYYNYFDYWGQGTLVTVSS
VL: DIQMTQSPSSLSASVGDRVTITCHASQNINVWLSWYQQKPGKAPKLLLYKASNLHTGVPSRFSGSGSGTDFTLTISSLQPEDIATYYCQQGQSYWTFGGGTKVEIK
binds: [7]

B5: 11H11m (antibody, V domains shown)
VH: QIQLVQSGSELKKPGASVKVSCKASGYTFTNFGMNWVRQAPGQGLEWMGWINTNTGEPTYADDFKGRFVFSLDTSVSTAYLQISSLKAEDTATYFCARGAPAWFTYWGQGTTVTVSS
VL: DIQMTQSPSSLSASVGDRVTITCRASESIYSYLAWYQQKPGKSPKFLIYNAKTLASGVPSRFSGSGSGTDFTLTISSLQPEDFATYYCQHHFGTPLTFGQGTKLEIK
binds: [8]

B6: 6C5m1 (antibody, V domains shown)
VH: QVQLVQSGAEVKKPGSSVKMSCKASGYTFTDYVISWVRQAPGQGLEWMGEIYPGSGNTYYNQKFQGRVTLTADKSTSTAYIELSSLRSEDTAVYYCAGGGSSHFDYWGQGTTVTVSS
VL: EIVLTQSPATLSLSPGERATLSCRASQSVDNHGFSFMNWFQQKPGQAPRLLIYAASNRGTGIPARFSGSGSGTDFTLTISSMEPEDFAVYYCQQSKEVPWTFGGGTKVEIK
binds: [9]

B7: 6C5m2 (antibody, V domains shown)
VH: QVQLVQSGAEVKKPGSSVKMSCKASGYTFTDYVISWVRQAPGQGLEWMGEIYPGSGNTYYNQKFQGRVTLTADKSTSTAYMELSSLRSEDTAVYYCAGGGSSHFDYWGQGTTVTVSS
VL: EIVLTQSPATLSLSPGERATLSCRASQSVDNHGFSFMNWFQQKPGQPPKLLIYAASNRGTGIPARFSGSGSGTDFTLTISSMEPEDFAVYYCQQSKEVPWTFGGGTKVEIK
binds: [9]
